The target in this experiment is human MC2R (Homo sapiens, UniProt Q01718). Description: Inhibition of binding of ACTH in human MC2R-containing membranes (SPA radioligand competition). As to conditions: read-out: hMC2 membrane binding; competition with 0.2 nM [125I]-TYR23]-ACTH (1-39), membranes of CHO-K1 cells expressing hMC2 receptor; tested form: TFA (1:1). (Displacement assays read how much labelled ligand stays bound in the presence of the test substance.)

By UniProt entry, the sequences of proteins in these tests, tags left out.
UniProt Q01718, whole entry: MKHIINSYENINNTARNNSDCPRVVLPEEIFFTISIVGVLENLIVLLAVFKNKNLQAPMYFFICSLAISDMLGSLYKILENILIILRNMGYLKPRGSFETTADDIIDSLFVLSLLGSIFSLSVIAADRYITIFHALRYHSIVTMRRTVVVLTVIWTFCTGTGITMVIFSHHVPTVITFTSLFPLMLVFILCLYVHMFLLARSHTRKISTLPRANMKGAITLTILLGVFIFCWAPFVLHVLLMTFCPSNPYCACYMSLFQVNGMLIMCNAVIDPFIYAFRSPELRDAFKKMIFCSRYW
UniProt Q8TCY5, whole entry partner: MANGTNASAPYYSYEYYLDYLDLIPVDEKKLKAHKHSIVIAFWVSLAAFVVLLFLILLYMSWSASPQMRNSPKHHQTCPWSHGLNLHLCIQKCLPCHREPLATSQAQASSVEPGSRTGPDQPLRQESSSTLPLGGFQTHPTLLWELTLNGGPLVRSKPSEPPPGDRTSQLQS

Structures were worked out from names or drawings and are uncertain.

Consider `CCOc1ccc(C(=O)N2CCN(c3ccc(-c4cccnc4OCC)nc3CNCCCOCCOCCOCCOCCNC(=O)[C@@H](CCCCNC(=O)CN3CCN(CC(=O)O)CCN(CC(=O)O)CCN(CC(=O)O)CC3)NC(=O)[C@@H](CCC(=O)O)NC(=O)CCCc3ccc(I)cc3)[C@H](CC)C2)c(C(F)(F)F)n1`, for which the Ki was less than 10 nM.

Source of the values: US20230405157A1, “MELANOCORTIN TYPE 2 RECEPTOR (MC2R) TARGETED THERAPEUTICS AND USES THEREOF” (Radionetics Oncology, Inc., priority 2022, published 2023).
